Reference: PubChem BioAssay AID328 (DTP/NCI, 2004)
The list is a part of this screen's results and no random one: it is rich in T/C values a quarter to a half above the control, in often repeated tests (any T/C) and in doses without a T/C. Further doses and runs are listed elsewhere. T/C gives the treated animals as a percentage of the vehicle group. Some doses have a count of surviving animals in place of a T/C: the source holds a T/C of zero for them, seemingly a mark for toxic or unscored doses. Some doses without a T/C left all or most animals alive at the check, yet need not have been tolerated: the source hardly ever lists a survival T/C far under the control, and the zero likely stands for such cases as well. Counts of survivors are from the toxicity check (mostly the fifth day) where no day follows; animals may have died later. Schedule codes are those of the source, taken here to give the interval after Q, in days (D) or hours (H), and the number of doses after X. Counts like (3×) stand for listed records that agree. Some entries were tested several times; their values stand side by side, smallest first. For survival time, this PubChem deposit counts one and a half times the control or more as active, and values a quarter to a half above the control carry no call in these data; other NCI protocols may use other cut-offs. Some T/C values carry the count of animals alive at the toxicity check (mostly the fifth day); without a count, all were alive then.

Tested on: BDF1 mice, P388 leukemia ip, median survival T/C
Assay: NCI In Vivo Anticancer Drug Screen. Data for tumor model P388 Leukemia (intraperitoneal) in B6D2F1 (BDF1) mice
Conditions: T/C endpoint: median survival time, higher T/C = longer survival
Procedure, shortened: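 Reported as T/C, where T is the survival measurement in dosed animals and C the same measurement in vehicle controls.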

[1] = dose: 200.0 mg/kg/injection, schedule: Q01DX009 (ip), vehicle: Klucel (hydroxypropylcellulose) (HPC)
[2] = dose: 400.0 mg/kg/injection, schedule: Q01DX009 (ip), vehicle: Klucel (hydroxypropylcellulose) (HPC)

In the case of `O=c1cnn(C2OC(CO)C(O)C2O)c(=O)[nH]1` (centres undefined), the survivor count (dose: 200.0 mg/kg/injection, schedule: Q01DX001 (ip), vehicle: Klucel (hydroxypropylcellulose) (HPC)) is reported as 3 of 3, the T/C (dose: 200.0 mg/kg/injection, schedule: Q01DX005 (ip), vehicle: Klucel (hydroxypropylcellulose) (HPC), evaluated on day 30) is reported as 91, 92, 96, 98, 100 (2×), 104, 105 (2×), 106 (5×), 108, 108 [5 of 6 alive], 111, 112, 114, 115, 115 [5 of 6 alive], 116 (2×), 117 (2×), 121 (2×), 122 (2×), 123, 124, 128, 132 % of control and the T/C (dose: 200.0 mg/kg/injection, schedule: Q01DX005 (ip), vehicle: Klucel (hydroxypropylcellulose) (HPC), evaluated on day 35) is reported as 137 % of control. For the same compound, the survivor count (dose: 200.0 mg/kg/injection, schedule: Q01DX005 (ip), vehicle: Klucel (hydroxypropylcellulose) (HPC)) was 3 of 3, the T/C [1] was 89 [5 of 6 alive], 90, 92, 96, 98, 100, 102, 104, 107, 108 (2×), 109 (2×), 110 (2×), 111, 112, 115, 116, 118 (2×), 121, 122, 122 [5 of 6 alive], 125, 126 (2×), 127, 129, 131, 134, 154 % of control and the survivor count [1] was 5 of 6. The T/C (dose: 200.0 mg/kg/injection, schedule: Q04DX002 (ip), vehicle: Klucel (hydroxypropylcellulose) (HPC), evaluated on day 30) was 86, 90, 99 (3×), 100, 101, 102, 105, 107 (3×), 108 (2×), 109 (3×), 110 (4×), 111 (3×), 112 (3×), 115, 117, 118, 131, 134 % of control, the T/C (dose: 200.0 mg/kg/injection, schedule: Q04DX002 (ip), vehicle: Klucel (hydroxypropylcellulose) (HPC), evaluated on day 35) was 106 % of control and the survivor count (dose: 200.0 mg/kg/injection, schedule: Q04DX002 (ip), vehicle: Klucel (hydroxypropylcellulose) (HPC)) was 6 of 6. The T/C (dose: 200.0 mg/kg/injection, schedule: Q04DX003 (ip), vehicle: Klucel (hydroxypropylcellulose) (HPC), evaluated on day 30) was 87, 93, 94, 95 (2×), 100, 101, 102 (2×), 103, 106 (2×), 107 (6×), 108, 109, 111 (2×), 112 (2×), 113, 114, 114 [5 of 6 alive], 115, 116, 117, 118 (2×), 128 % of control, the T/C (dose: 200.0 mg/kg/injection, schedule: Q04DX003 (ip), vehicle: Klucel (hydroxypropylcellulose) (HPC), evaluated on day 35) was 98 % of control and the survivor count (dose: 200.0 mg/kg/injection, schedule: Q04DX003 (ip), vehicle: Klucel (hydroxypropylcellulose) (HPC)) was 3 of 3 (2×). For the same compound, the T/C (dose: 400.0 mg/kg/injection, schedule: Q01DX001 (ip), vehicle: Klucel (hydroxypropylcellulose) (HPC), evaluated on day 30) was 89, 93 (2×), 95, 96, 96 [2 of 3 alive], 100 (2×), 101, 102 (2×), 103, 104 (2×), 106 (3×), 107, 109 (2×), 110, 111, 112, 113, 115, 117, 120, 133 % of control, the T/C (dose: 400.0 mg/kg/injection, schedule: Q01DX001 (ip), vehicle: Klucel (hydroxypropylcellulose) (HPC), evaluated on day 35) was 102 and 110 % of control and the survivor count (dose: 400.0 mg/kg/injection, schedule: Q01DX001 (ip), vehicle: Klucel (hydroxypropylcellulose) (HPC)) was 3 of 3 and 6 of 6. The T/C (dose: 400.0 mg/kg/injection, schedule: Q01DX005 (ip), vehicle: Klucel (hydroxypropylcellulose) (HPC), evaluated on day 30) was 99, 100 (3×), 107, 108 (2×), 111, 112 (5×), 113 (2×), 115, 118, 119, 121 (3×), 122 (2×), 123, 125 (2×), 129, 130, 132, 134, 138 (2×), 149 % of control, the T/C (dose: 400.0 mg/kg/injection, schedule: Q01DX005 (ip), vehicle: Klucel (hydroxypropylcellulose) (HPC), evaluated on day 35) was 125 % of control and the survivor count (dose: 400.0 mg/kg/injection, schedule: Q01DX005 (ip), vehicle: Klucel (hydroxypropylcellulose) (HPC)) was 3 of 3. The T/C [2] was 88, 98, 100 (2×), 102 (2×), 103, 112 (2×), 113 (2×), 114 (2×), 115 (2×), 118, 119, 120, 122, 123, 125 (2×), 126, 127 (3×), 133, 139, 142, 160 % of control, the survivor count [2] was 3 of 3 and 6 of 6 and the T/C (dose: 400.0 mg/kg/injection, schedule: Q01DX010 (ip), vehicle: saline) was 141 % of control. For the same compound, the T/C (dose: 400.0 mg/kg/injection, schedule: Q04DX002 (ip), vehicle: Klucel (hydroxypropylcellulose) (HPC), evaluated on day 30) was 86, 90, 92 [2 of 3 alive], 95, 97, 102 (3×), 103 (2×), 104, 105 (4×), 107 (2×), 109 (2×), 110, 111, 112 (4×), 115, 116, 118, 121 (2×), 122 (2×), 129 % of control, the T/C (dose: 400.0 mg/kg/injection, schedule: Q04DX002 (ip), vehicle: Klucel (hydroxypropylcellulose) (HPC), evaluated on day 35) was 106 % of control and the T/C (dose: 400.0 mg/kg/injection, schedule: Q04DX003 (ip), vehicle: Klucel (hydroxypropylcellulose) (HPC), evaluated on day 30) was 94 [5 of 6 alive], 100 (3×), 101, 102, 103 (2×), 104 (3×), 105 (3×), 107 (2×), 109 (2×), 111 (2×), 112 (2×), 113, 114 (3×), 115, 116 (2×), 119, 124, 126, 127 % of control. The T/C (dose: 400.0 mg/kg/injection, schedule: Q04DX003 (ip), vehicle: Klucel (hydroxypropylcellulose) (HPC), evaluated on day 35) was 100 and 120 % of control, the survivor count (dose: 400.0 mg/kg/injection, schedule: Q04DX003 (ip), vehicle: Klucel (hydroxypropylcellulose) (HPC)) was 1 of 3 and the survivor count (dose: 600.0 mg/kg/injection, schedule: Q01DX009 (ip), vehicle: Klucel (hydroxypropylcellulose) (HPC)) was 10 of 10. The T/C (dose: 800.0 mg/kg/injection, schedule: Q01DX010 (ip), vehicle: saline) was 136 and 141 % of control and the T/C (dose: 1600.0 mg/kg/injection, schedule: Q01DX010 (ip), vehicle: saline) was 129 % of control.
